Data source: PubChem BioAssay AID1259405 (NCATS, 2018)
The deposit covers about 50,000 reagents; below is an unselected part. Of all reagents, about 4,000 (8%) were called active. 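Mouse siRNA library applied to hamster cells; one well for each siRNA.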 The numbers tell different reagents against one gene apart.

Test: 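Knock-downs that lift recombinant protein yield in hamster ovary cells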 (primary screen)
Cells: Chinese hamster CHO-K1 ovary cells with stable secreted eGFP expression
Reagents: single siRNA against mouse genes, 0.8 pmol siRNA per well (2 µl of 400 nM stock)
Time to read-out: 3 days
Measured: 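Per-well intracellular GFP measured by laser scanning cytometry, plus viability from ATP luminescence, each relative to plate median of non-targeting control wells, in %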
Scale: GFP, % of control: higher = more GFP per well, higher productivity; viability (ATP), % of control: higher = more viable cells (more ATP)
Hit rule: 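a knock-down is called active if GFP reaches 120% or more of non-targeting control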

The opening 4 entries, to show the layout:
no.	target gene	siRNA no.	GFP, % of control	viability (ATP), % of control	outcome
1	Ascl1	1	108	93.6	inactive
2	Ascl1	2	72.9	77.2	inactive
3	Josd2	1	63.7	77.3	inactive
4	Josd2	2	113	83.6	inactive

The list itself, repeating the preview:
no.	target gene	siRNA no.	GFP, % of control	viability (ATP), % of control	outcome
1	Ascl1	1	108	93.6	inactive
2	Ascl1	2	72.9	77.2	inactive
3	Josd2	1	63.7	77.3	inactive
4	Josd2	2	113	83.6	inactive
5	Josd2	3	80.2	31.7	inactive
6	Cacfd1	1	66.3	80.4	inactive
7	Cacfd1	2	60.6	66	inactive
8	Cacfd1	3	86.6	110	inactive
9	Nrn1l	1	77.3	101	inactive
10	Nrn1l	2	62.1	60.7	inactive
11	Nrn1l	3	132	51.9	active
12	Kdm8	1	57.3	76.2	inactive
13	Kdm8	2	46.1	52.1	inactive
14	Kdm8	3	80	71.4	inactive
15	Pira1	1	114	103	inactive
16	Pira1	2	78.9	59.3	inactive
17	Pira1	3	48.2	69.5	inactive
18	Foxd3	1	148	79.4	active
19	Foxd3	2	58.1	57.2	inactive
20	Ralyl	1	96.6	104	inactive
21	Ralyl	2	86.5	70.3	inactive
22	Ralyl	3	60.4	71.3	inactive
23	Onecut1	1	68.3	108	inactive
24	Onecut1	2	53.6	77.2	inactive
25	Onecut1	3	84.6	114	inactive
26	Vtn	1	57.2	103	inactive
27	Vtn	2	77.3	85.4	inactive
28	Fzd10	1	71.6	130	inactive
29	Fzd10	2	99	89.2	inactive
30	Nxf1	1	25.5	56.1	inactive
31	Nxf1	2	109	96.2	inactive
32	Acat3	1	68.2	36.2	inactive
33	Acat3	2	72.5	66.6	inactive
34	Acat3	3	106	76.7	inactive
35	Xlr4b	1	51	36.1	inactive
36	Xlr4b	2	81.8	66.6	inactive
37	Xlr4b	3	50	84.7	inactive
38	Mcmdc2	1	54.2	52.5	inactive
39	Mcmdc2	2	68.8	92.3	inactive
40	Mcmdc2	3	91.6	107	inactive
41	2410018L13Rik	1	149	75.1	active
42	2410018L13Rik	2	48	66.1	inactive
43	2410018L13Rik	3	88.5	66.3	inactive
44	Prss16	1	78.8	89.1	inactive
45	Prss16	2	129	87.7	active
46	Prss16	3	68.6	59.7	inactive
47	Ptges3l	1	128	62.5	active
48	Ptges3l	2	40.3	37.3	inactive
49	Ptges3l	3	63.1	57.4	inactive
50	Pigq	1	83.8	153	inactive
51	Pigq	2	59.9	77.6	inactive
52	Pigq	3	0.341	96.3	inactive
53	Hand1	1	33.1	59.6	inactive
54	Hand1	2	94.2	85.3	inactive
55	Ccnj	1	91.9	75.2	inactive
56	Ccnj	2	38.8	51.9	inactive
57	Ccnj	3	101	79.1	inactive
58	Zfp182	1	67.3	70.9	inactive
59	Zfp182	2	38.2	29	inactive
60	Zfp182	3	84.4	80.2	inactive
61	Skint9	1	63.8	52.7	inactive
62	Skint9	2	43.5	52.3	inactive
63	Skint9	3	78.2	97.1	inactive
64	Fbxl5	1	42.9	51	inactive
65	Fbxl5	2	71.6	83.9	inactive
66	Fbxl5	3	92.3	85.7	inactive
67	Nopchap1	1	77.3	86.4	inactive
68	Nopchap1	2	51	73.2	inactive
69	Nopchap1	3	80.8	97.2	inactive
70	Xkr7	1	35.5	90.8	inactive
71	Xkr7	2	82.1	67.3	inactive
72	Xkr7	3	78	90.2	inactive
73	Fbxl13	1	92.1	71.8	inactive
74	Fbxl13	2	87	80.5	inactive
75	Fbxl13	3	98.8	92	inactive
76	Atox1	1	104	58.2	inactive
77	Atox1	2	61.7	68.7	inactive
78	Atox1	3	49.6	37.8	inactive
79	Slco1a5	1	133	67.1	active
80	Slco1a5	2	78.3	84.5	inactive
81	Slco1a5	3	67.6	91.6	inactive
82	Plekhm3	1	53.8	62.9	inactive
83	Plekhm3	2	63.4	41.5	inactive
84	Plekhm3	3	75.8	92.7	inactive
